In PMC6659704:
No constants are given. Whether binding was seen depends on the method and setting. Binding seen in cells or lysates may run through a third protein. Some binding calls cover weakened binding; strength is not graded here. Tags and fused reporters may be left off the sequences shown.

Sequences of proteins named here, by UniProt entry; tags and fusion partners are left off.
UniProt Q9SGH2: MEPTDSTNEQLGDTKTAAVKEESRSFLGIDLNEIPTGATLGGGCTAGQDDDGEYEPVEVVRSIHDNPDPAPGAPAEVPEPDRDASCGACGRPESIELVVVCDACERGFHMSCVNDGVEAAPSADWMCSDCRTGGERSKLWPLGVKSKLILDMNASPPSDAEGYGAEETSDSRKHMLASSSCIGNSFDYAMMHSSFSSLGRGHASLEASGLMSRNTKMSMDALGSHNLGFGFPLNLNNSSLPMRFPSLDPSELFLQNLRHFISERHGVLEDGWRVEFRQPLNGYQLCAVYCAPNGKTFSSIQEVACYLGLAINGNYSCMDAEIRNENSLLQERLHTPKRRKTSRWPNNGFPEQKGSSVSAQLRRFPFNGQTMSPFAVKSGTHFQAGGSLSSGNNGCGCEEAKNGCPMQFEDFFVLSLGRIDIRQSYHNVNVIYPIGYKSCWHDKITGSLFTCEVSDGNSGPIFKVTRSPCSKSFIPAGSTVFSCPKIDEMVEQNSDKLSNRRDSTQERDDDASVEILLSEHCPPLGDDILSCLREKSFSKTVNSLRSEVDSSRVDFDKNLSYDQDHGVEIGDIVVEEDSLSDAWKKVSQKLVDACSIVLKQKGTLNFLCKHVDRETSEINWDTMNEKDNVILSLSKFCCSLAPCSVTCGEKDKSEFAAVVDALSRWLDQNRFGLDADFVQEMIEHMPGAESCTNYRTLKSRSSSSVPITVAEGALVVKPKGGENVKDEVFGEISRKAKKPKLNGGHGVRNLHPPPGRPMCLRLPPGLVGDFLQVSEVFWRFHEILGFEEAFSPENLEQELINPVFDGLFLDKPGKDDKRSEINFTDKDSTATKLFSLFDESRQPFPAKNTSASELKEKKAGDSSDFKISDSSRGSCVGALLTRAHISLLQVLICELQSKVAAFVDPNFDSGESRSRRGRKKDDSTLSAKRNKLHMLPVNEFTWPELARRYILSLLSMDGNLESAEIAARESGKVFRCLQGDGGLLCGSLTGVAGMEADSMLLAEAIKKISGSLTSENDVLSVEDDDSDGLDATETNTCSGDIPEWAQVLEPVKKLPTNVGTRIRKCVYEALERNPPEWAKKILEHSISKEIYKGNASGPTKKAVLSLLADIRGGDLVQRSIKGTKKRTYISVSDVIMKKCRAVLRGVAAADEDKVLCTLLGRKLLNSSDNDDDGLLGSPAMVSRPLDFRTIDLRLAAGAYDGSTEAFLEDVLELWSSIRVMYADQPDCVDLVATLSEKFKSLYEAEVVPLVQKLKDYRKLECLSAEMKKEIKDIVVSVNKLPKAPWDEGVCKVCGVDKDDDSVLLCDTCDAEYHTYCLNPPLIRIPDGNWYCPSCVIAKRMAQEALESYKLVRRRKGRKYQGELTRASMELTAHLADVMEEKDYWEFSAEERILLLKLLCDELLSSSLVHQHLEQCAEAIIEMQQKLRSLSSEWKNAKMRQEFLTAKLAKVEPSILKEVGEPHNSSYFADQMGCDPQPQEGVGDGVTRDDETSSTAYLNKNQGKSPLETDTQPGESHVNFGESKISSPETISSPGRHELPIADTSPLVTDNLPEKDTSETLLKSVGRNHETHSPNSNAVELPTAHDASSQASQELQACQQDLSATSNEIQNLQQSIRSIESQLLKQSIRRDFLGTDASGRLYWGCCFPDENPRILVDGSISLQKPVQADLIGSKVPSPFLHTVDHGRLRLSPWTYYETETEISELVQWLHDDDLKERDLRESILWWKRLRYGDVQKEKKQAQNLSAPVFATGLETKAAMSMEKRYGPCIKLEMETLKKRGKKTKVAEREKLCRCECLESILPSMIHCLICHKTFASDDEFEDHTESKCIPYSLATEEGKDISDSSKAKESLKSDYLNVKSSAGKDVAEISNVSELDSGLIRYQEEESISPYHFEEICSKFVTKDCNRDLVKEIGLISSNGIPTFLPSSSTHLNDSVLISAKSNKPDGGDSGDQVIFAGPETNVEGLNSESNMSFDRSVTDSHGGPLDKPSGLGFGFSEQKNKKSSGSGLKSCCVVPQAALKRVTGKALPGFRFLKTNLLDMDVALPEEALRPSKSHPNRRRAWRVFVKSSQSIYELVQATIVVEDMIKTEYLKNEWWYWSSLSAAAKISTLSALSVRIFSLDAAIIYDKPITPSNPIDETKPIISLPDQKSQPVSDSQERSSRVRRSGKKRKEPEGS

Biological target: methyl-CpG-binding domain 9 (MBD9), endogenous (Arabidopsis (endogenous in flowers)) (UniProt Q9SGH2)
Assay: co-IP; anti-MBD9 polyclonal antibody on magnetic beads in lysate of ~2 g floral tissue; IP buffer (50 mM Tris pH 7.6, 150 mM NaCl, 5 mM MgCl2, 10% glycerol, 0.1% NP-40, 0.5 mM DTT), 2 h at 4 °C; blot with anti-Myc 9E10; empty beads as negative control

binding: binds
B1: ARP6-9xMYC (protein, UniProt Q8LGE3 1-421)
chain: MSNIVVLDNGGGLIKAGQGGERDPTTVIPNCLYKPLSSKKFIHPSPLTTLSDEIDLTSAAVRRPIDRGYLINSDLQREIWSHLFTSLLHIAPSSSSLLLTEAPLSIPSVQRTTDELVFEDFGFSSLYIAHPQSLVHLYEASRQPDSILSKTQCSLVVDCGFSFTHAVPVLHNFTLNHAIKRIDLGGKAFTNYLKELVSYRSINVMDETFLVDDAKEKLCFVSLDLLRDLRLARNGNTLIKSTYVLPDGVTHTKGYVKDPQAAKRFLSLSEKESVVVMDKVGERKKADMNKNEIDLTNERFLVPETLFQPADLGMNQAGLAECIVRAINSCHSYLQPVLYQSIILTGGSTLFPQLKERLEGELRPLVPDHFDVKITTQEDPILGVWRGGSLLASSPDFESMCVTKAEYEELGSARCRRRFFH
